Protein sequences, listed by entry. Tags and fused reporters are not part of them. Lines headed by an entry give the natural chain unless they say otherwise; changes in a name come on top.
UniProt Q9QZS3: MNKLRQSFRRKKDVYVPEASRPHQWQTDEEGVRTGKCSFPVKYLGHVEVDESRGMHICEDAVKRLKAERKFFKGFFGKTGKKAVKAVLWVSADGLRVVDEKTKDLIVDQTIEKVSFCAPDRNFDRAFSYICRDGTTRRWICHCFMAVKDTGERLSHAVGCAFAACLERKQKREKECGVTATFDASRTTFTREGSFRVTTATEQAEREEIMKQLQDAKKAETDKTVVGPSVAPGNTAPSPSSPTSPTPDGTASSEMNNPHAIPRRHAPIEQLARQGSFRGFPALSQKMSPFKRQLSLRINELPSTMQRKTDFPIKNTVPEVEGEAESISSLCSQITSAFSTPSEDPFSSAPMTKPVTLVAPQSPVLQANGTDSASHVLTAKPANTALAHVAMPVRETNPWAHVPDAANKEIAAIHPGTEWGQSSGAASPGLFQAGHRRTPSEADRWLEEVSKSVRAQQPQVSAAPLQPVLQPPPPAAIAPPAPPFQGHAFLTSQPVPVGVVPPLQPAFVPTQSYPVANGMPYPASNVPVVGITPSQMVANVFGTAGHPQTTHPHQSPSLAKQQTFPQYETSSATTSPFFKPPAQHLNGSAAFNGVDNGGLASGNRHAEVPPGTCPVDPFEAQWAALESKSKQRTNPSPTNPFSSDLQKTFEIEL
UniProt O88990: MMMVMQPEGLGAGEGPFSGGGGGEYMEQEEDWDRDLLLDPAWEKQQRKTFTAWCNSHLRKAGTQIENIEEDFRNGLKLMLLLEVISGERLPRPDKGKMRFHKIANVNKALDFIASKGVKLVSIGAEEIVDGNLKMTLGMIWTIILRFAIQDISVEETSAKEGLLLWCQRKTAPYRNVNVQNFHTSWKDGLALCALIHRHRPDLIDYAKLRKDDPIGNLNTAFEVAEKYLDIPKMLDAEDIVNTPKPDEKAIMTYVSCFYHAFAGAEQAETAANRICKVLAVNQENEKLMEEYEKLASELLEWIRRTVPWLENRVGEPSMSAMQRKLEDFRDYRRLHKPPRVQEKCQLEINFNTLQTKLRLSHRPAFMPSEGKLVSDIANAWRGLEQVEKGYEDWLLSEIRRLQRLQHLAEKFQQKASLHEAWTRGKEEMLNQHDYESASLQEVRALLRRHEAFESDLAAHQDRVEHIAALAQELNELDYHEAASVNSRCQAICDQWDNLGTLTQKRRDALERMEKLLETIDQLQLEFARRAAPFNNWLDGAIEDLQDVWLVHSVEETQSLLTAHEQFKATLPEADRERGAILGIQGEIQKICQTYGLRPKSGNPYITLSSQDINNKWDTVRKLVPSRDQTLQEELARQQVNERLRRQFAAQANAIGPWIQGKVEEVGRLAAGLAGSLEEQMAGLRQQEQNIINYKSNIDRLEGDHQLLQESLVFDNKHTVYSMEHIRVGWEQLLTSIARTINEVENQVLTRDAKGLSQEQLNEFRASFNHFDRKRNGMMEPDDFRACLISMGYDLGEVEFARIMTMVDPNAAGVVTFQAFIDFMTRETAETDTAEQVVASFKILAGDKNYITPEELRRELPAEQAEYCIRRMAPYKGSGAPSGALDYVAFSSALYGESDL
UniProt Q9JI91: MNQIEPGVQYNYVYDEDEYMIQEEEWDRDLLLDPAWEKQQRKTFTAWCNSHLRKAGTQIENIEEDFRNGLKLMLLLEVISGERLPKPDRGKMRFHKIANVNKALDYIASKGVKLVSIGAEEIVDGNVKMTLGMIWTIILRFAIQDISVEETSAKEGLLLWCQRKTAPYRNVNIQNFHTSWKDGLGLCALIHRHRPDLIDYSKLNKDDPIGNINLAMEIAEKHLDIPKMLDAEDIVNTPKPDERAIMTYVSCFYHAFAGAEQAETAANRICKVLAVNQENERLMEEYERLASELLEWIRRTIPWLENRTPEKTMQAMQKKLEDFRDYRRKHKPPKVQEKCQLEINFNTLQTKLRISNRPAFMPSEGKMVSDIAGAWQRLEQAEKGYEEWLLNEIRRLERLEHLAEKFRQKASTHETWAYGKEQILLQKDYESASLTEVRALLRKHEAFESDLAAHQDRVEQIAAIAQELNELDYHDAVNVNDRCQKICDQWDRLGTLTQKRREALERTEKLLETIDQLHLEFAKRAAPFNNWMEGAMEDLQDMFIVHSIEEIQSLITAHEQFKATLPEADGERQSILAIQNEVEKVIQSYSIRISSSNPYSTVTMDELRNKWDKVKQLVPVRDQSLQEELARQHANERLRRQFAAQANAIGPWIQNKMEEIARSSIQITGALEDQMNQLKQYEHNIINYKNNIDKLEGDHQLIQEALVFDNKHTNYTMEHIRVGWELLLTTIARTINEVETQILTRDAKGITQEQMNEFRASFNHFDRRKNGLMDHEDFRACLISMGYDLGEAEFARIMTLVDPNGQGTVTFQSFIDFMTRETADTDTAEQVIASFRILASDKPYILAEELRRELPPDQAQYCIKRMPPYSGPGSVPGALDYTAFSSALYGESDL

According to paper PMC8803338:

Molecular target: Myc-Numb66 (UniProt Q9QZS3)
Test: co-IP; AD293 cells cotransfected with Myc-tagged and EGFP-tagged plasmids, harvested 24 hours after transfection; NP-40 lysis buffer, anti-Myc-Tag, Protein A/G beads, Western blot

binding | Substance
no binding | EGFP-ACTN3 (from UniProt O88990 1-900)
no binding | EGFP-ACTN2 (from UniProt Q9JI91 1-894)

These are yes or no findings as the source states them, for the method shown. Binding seen in cells or lysates may run through a third protein.
